The results in this text go back to patent publication US10449261B2, “Compositions targeting radiation-induced molecules and methods of use thereof” (Washington University, priority 2014, dated 2019).

Amino acid sequences for entries named in this document (tags omitted). Residues count along the entry.
UniProt P11021, residues 19-654: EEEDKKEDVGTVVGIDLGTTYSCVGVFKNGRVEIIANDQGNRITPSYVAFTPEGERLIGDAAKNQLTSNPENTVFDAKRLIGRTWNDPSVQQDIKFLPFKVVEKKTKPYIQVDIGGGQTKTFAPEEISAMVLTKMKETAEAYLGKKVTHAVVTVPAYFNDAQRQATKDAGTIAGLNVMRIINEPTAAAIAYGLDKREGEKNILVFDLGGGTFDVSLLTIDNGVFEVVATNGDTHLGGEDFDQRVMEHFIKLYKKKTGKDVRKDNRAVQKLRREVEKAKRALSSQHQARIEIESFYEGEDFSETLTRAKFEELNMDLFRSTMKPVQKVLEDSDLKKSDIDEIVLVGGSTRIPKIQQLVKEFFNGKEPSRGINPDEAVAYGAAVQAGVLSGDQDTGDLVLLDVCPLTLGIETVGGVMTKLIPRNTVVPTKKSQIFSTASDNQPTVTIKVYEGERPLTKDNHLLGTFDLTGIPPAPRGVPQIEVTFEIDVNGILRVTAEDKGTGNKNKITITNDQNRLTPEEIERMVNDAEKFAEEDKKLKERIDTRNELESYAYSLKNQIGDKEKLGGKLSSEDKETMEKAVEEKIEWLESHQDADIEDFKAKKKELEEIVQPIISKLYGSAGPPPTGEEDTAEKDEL

Results are given in words; binding and its absence hold for the method and conditions named. Some entries that bind do so weakly or less than the wild type.

In assay [1] the target is T1, recombinant eukaryotic GRP78 protein (Prospec, USA) (UniProt P11021 19-654, limits assumed).
T1 construct: Immobilised by amine coupling on a CM4 chip; also called Glucose-regulated protein 78 kDa; Glucose Regulatory Protein-78
Put plainly: SPR, GRP78 immobilised on a CM4 chip.

For assay [2], the target named is T1, recombinant eukaryotic GRP78 protein …. Put plainly: SPR (BIAcore 2000): GRP78 amine-coupled on a CM4 chip, peptide as analyte in HBS-EP at 25 C, reference-subtracted. On the technique in general: Surface plasmon resonance follows binding to a sensor surface in real time, without labels.

B1: GIRLRG (SEQ ID NO:1) peptide (peptide)
peptide: GIRLRG
notes: Unconjugated synthetic hexapeptide, used as the analyte in SPR and as the ligand in the molecular model; also called lead peptide
As for B1, the binding entry in assay [1] and in assay [2] was “binds” in each case.
